Laboratory results: PubChem BioAssay AID743121 (NCATS, 2013)
In all, the deposit lists about 26,000 reagents; this is an unselected part. 167 of them (0.63%) were called active. 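Calls are per gene from RSA p-values that are not deposited; an individual active-marked siRNA can sensitise only weakly.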 A number with no mark means an inactive call. Reagents against one gene are numbered here. Not all columns of the deposit are shown.

- Purpose: 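Partners whose loss is lethal together with topoisomerase I blockade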 (primary screen)
- Cell system: MDA-MB-231 cells, a human breast cancer line
- Knock-down reagent: single siRNA against human genes, 20 nM siRNA (0.8 pmol per well)
- Duration: 120 h (drug added 48 h after transfection, read 72 h later)
- Conditions: camptothecin 20 nM (about EC30) for 72 h; vehicle 0.1% DMSO in parallel plates
- Measurement: 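CellTiter-Glo ATP signal, scaled to control siRNA as percent viability; sensitisation given as log2 of untreated divided by camptothecin-treated viability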
- Direction: log2 vehicle/camptothecin viability: higher = stronger sensitisation to camptothecin
- Call rule: 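Active genes have an RSA gene-level p-value below 0.001, computed from the ratios of their separate siRNAs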

no.	gene	siRNA no.	log2 vehicle/camptothecin viability
1	BOC (GeneID 91653)	1	0.31
2	BOC (GeneID 91653)	2	-0.47
3	BOC (GeneID 91653)	3	0.278
4	THBS4 (GeneID 7060)	1	0.24
5	THBS4 (GeneID 7060)	2	-0.202
6	THBS4 (GeneID 7060)	3	0.35
7	THBS4 (GeneID 7060)	4	0.037
8	LINGO4 (GeneID 339398)	1	0.128
9	LINGO4 (GeneID 339398)	2	-0.0429
10	LINGO4 (GeneID 339398)	3	0.154
11	LINGO4 (GeneID 339398)	4	-0.0102
12	DCST1 (GeneID 149095)	1	-0.0403
13	DCST1 (GeneID 149095)	2	-0.0871
14	DCST1 (GeneID 149095)	3	-0.395
15	LETMD1 (GeneID 25875)	1	0.27
16	LETMD1 (GeneID 25875)	2	0.465
17	LETMD1 (GeneID 25875)	3	0.0777
18	LETMD1 (GeneID 25875)	4	-0.165
19	PRDM2 (GeneID 7799)	1	-0.214
20	PRDM2 (GeneID 7799)	2	0.586
21	PRDM2 (GeneID 7799)	3	0.185
22	PRDM2 (GeneID 7799)	4	0.0792
23	UBN2 (GeneID 254048)	1	-0.514
24	UBN2 (GeneID 254048)	2	-0.108
25	UBN2 (GeneID 254048)	3	-0.297
26	UBN2 (GeneID 254048)	4	0.00332
27	ESPL1 (GeneID 9700)	1	-0.301
28	ESPL1 (GeneID 9700)	2	-0.388
29	ESPL1 (GeneID 9700)	3	0.255
30	HSP90B1 (GeneID 7184)	1	-0.559
31	HSP90B1 (GeneID 7184)	2	0.48
32	HSP90B1 (GeneID 7184)	3	-0.0893
33	HSP90B1 (GeneID 7184)	4	-0.13
34	FBXO5 (GeneID 26271)	1	0.193
35	FBXO5 (GeneID 26271)	2	-0.549
36	FBXO5 (GeneID 26271)	3	-0.194
37	FBXO5 (GeneID 26271)	4	0.0251
38	GRIN2B (GeneID 2904)	1	-0.512
39	GRIN2B (GeneID 2904)	2	-0.0436
40	GRIN2B (GeneID 2904)	3	0.0999
41	GRIN2B (GeneID 2904)	4	-0.336
42	RTL9 (GeneID 57529)	1	-0.341
43	RTL9 (GeneID 57529)	2	-0.188
44	RTL9 (GeneID 57529)	3	-0.137
45	RTL9 (GeneID 57529)	4	0.0486
46	CD8B (GeneID 926)	1	-0.589
47	CD8B (GeneID 926)	2	-0.664
48	CD8B (GeneID 926)	3	-0.0414
49	CD8B (GeneID 926)	4	-0.262
50	CD8B (GeneID 926)	5	-0.34
51	CD8B (GeneID 926)	6	0.0288

Entries listed so far whose target name starts with D or d:
gene	siRNA no.	log2 vehicle/camptothecin viability
DCST1 (GeneID 149095)	1	-0.0403
DCST1 (GeneID 149095)	2	-0.0871
DCST1 (GeneID 149095)	3	-0.395
